Experimental data: patent publication US10653691B2, “Method of promoting remyelination” (Case Western Reserve University, priority 2013, dated 2020)
For at least one compound, name, drawing or mass did not settle the structure. Some of these results come from one statement about several compounds together.

Assays:
glucocorticoid receptor = experiment: Western blot of glucocorticoid receptor phosphorylation at Ser220 in OPCs; assay type: cell-based, mouse; settings: with clobetasol
mouse OPCs = experiment: OPC differentiation into MBP+ oligodendrocytes; assay type: cell-based; settings: MBP+ oligodendrocytes 72 h after treatment, with clobetasol
LPC lesion mouse model = experiment: LPC-induced focal demyelination of the spinal cord and drug treatment; assay type: in vivo; settings: 12 d.p.l.
Method: Focal demyelination in the spinal cord was induced by the injection of 1% LPC solution. Ten- to 12-week-old C57BL/6 female mice were anaesthetized using isoflurane and a T10 laminectomy was performed. One microlitre of 1% LPC was infused into the dorsal column at a rate of […]. The animals were euthanized either at day 8 or day 12 after the laminectomy (n=6-9 per group). Animals that were euthanized at day 8 received vehicle or drug daily by intraperitoneal injection between days 3 and 7. Animals used in the day 12 experiments received vehicle or drug daily by intraperitoneal injection between days 4 and 11. Drugs were dissolved in DMSO and then diluted with sterile saline for injection. Mice were deeply anaesthetized using ketamine/xylazine rodent cocktail and then euthanized by transcardial perfusion with 4% PFA for histological analysis or 4% PFA, 2% gluteraldehyde, and 0.1M sodium cacodylate for electron microscopy. PFA fixed tissue was equilibrated in 30% sucrose, embedded in OCT, and cryosectioned at 20 μm thickness and processed for CC1 and MBP immunohistochemistry. ImageJ was used to measure area of the lesion and CC1^+ cells within the lesion were scored manually. For CC1 scoring, sections were taken from the centre of each lesion to control for lesion variability.
Samples were processed as previously described.

SMILES | block of clobetasol-induced glucocorticoid receptor phosphorylation (glucocorticoid receptor) | block of clobetasol-induced oligodendrocyte differentiation (mouse OPCs) | remyelinated axons throughout the lesion (LPC lesion mouse model)
CC#C[C@]1(O)CC[C@H]2[C@@H]3CCC4=CC(=O)CCC4=C3[C@@H](c3ccc(N(C)C)cc3)C[C@@]21C [RU486] | blocked clobetasol-induced glucocorticoid receptor phosphorylation | blocked clobetasol-induced glucocorticoid receptor phosphorylation and oligodendrocyte differentiation | –
C[C@H]1C[C@H]2[C@@H]3CCC4=CC(=O)C=C[C@]4(C)[C@@]3(F)[C@@H](O)C[C@]2(C)[C@@]1(O)C(=O)CCl [clobetasol] | – | – | > 70%
Clc1ccc(COC(Cn2ccnc2)c2ccc(Cl)cc2Cl)c(Cl)c1 (stereo not shown) [miconazole] | – | – | > 70%
